# Measured values: patent publication US12617757B2, “Compounds and modules for inhibition of pre-miR-21 and their use in treatment of certain cancers” (University of Florida Research Foundation, Incorporated, priority 2019, dated 2026)
# Test system: proteome of MDA-MB-231 cells
# Test: Global proteomics profiling (LC-MS/MS) of MDA-MB-231 cells
# Format: cell-based, human
# Conditions: 50 nM
# Protocol: Global proteomics profiling using LC-MS/MS. The MDA-MB-231 cells treated with vehicle (DMSO) or 5 (50 nM) were washed with PBS, harvested by scraping, centrifuged at 1500×g for five minutes at 4° C. and then resuspended in PBS. Cells were lysed by sonication and lysate protein concentrations were determined using a Bradford assay (Bio-Rad). Protein samples (40 μg) were denatured with 6 M urea in 50 mM NH4HCO3, reduced with 10 mM tris(2-carboxyethyl)phosphine hydrochloride (TCEP) for 30 minutes, and then alkylated with 25 mM iodoacetamide for 30 minutes in the dark. Samples were diluted to 2 M urea with 50 mM NH4HCO3, and digested with trypsin (2 μL of 0.5 μg/μL) in the presence of 1 mM CaCl2) for 12 hours at 37° C. […] Samples were analyzed by LC-MS/MS (see below) and the MS data was processed with MaxQuant and Proteome Discoverer (see below).
# LC-MS/MS analysis: Peptides were resuspended in water with 0.1% formic acid (FA) and analyzed using an EASY-nLC 1200 nano-UHPLC coupled to Q Exactive HF-X Quadrupole-Orbitrap mass spectrometer (Thermo Scientific). […]
# MaxQuant analysis: The MS data was analyzed with MaxQuant (V1.6.1.0)^27 and searched against the human proteome (Uniprot) and a common list of contaminants (included in MaxQuant). […] The minimum peptide length was set to 6 amino acids and peptide re-quantification and label-free quantification (MaxLFQ) were enabled. […]
structure (smiles),measurement,value
CCCN(CC(=O)N(CCC)CC(=O)N(CCC)CC(=O)N(CC(=O)NCCOCCOCCOCCOc1ccc(C=C2SC(Nc3ccccc3)=C(C(=O)OCC)C2=O)cc1O)Cc1cn(CCCNC(=O)CCCOc2ccc(-c3nc4cc(-c5ccc(N6CCN(C)CC6)cc5)ccc4[nH]3)cc2)nn1)C(=O)CN(Cc1cn(CCCNC(=O)CCCOc2ccc(-c3nc4cc(-c5ccc(N6CCN(C)CC6)cc5)ccc4[nH]3)cc2)nn1)C(C)=O [Compound 5],"proteins significantly affected, of 4181",47 proteins
same,shift among downstream protein targets of miR-let-7-5p,no significant shift
